Test results published in PubChem BioAssay AID651640 (Broad Institute, 2012).
Out of some 350,000 compounds screened, about 6,000 (1.7%) were called active. Inconclusive results, whose numbers are uncertain, are shown with a selection of clear calls. Cut-off read from the data, not from the text of the source: active = CPE inhibition above about 20% (passing the limit was not always enough); inconclusive = no clear call, values can overlap the other calls; tested in BHK-21 cells.

assay: protection of cells from dengue 2 killing – plate reader, single concentration, primary screen (AID 651640); conditions: DENV2-infected cells, cytopathic effect rescue, at 9.99 µM, active compounds read high;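 note: 0% = median of neutral control wells and 100% = median of positive control wells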

Structure (SMILES)	CPE inhibition
COC(=O)C[C@H](NC(=O)Cn1cnc2c(NCc3ccccc3)ncnc21)C(=O)OC	inconclusive: 40.9%
Cc1cc(Cl)ccc1NC(=S)NCc1ccc(F)cc1	inactive: -7.23%
COc1ccc(S(=O)(=O)N(C)C[C@@H]2Oc3cc(C#CC4CCCC4)ccc3S(=O)(=O)N([C@@H](C)CO)C[C@H]2C)cc1	inactive: 0.408%
Cc1ccc2ccc(S(=O)(=O)NCc3ccco3)cc2c1	inconclusive: 20.8%
CN1c2ccc(-c3cccc(C#N)c3)cc2[C@@H]2[C@@H](CCN2C(=O)NC2CCCC2)[C@H]1CO	inconclusive: 54%
C/C=C/c1ccc2c(c1)O[C@@H](CN(C)Cc1cccnc1)[C@H](C)CN([C@@H](C)CO)S2(=O)=O	inconclusive: 30.4%
CC(C)NC(=O)N(C)C[C@H]1Oc2c(NS(C)(=O)=O)cccc2C(=O)N([C@H](C)CO)C[C@H]1C	inactive: -5.04%
CCOC(=O)CN1C(c2ccc(O)cc2)Nc2ccc(Br)cc2C1c1ccccc1 (centres undefined)	inconclusive: 21.5%
C[C@H]1CN([C@@H](C)CO)C(=O)c2cc(NC(=O)Nc3ccc(C(F)(F)F)cc3)ccc2O[C@H]1CN(C)Cc1ccncc1	active: 20.6%
Cc1cc(CNC[C@H]2O[C@@H](n3cnc(C(N)=O)n3)[C@H](O)[C@@H]2O)c(C)n1-c1cccnc1	inconclusive: 28%
COC(=O)C[C@@H]1CC[C@@H]2[C@H](COc3ccc(NC(=O)c4ccc(C(F)(F)F)cc4)cc3C(=O)N2C)O1	inconclusive: 40.4%
CC(C)CC#Cc1ccc2c(c1)O[C@H](CN(C)C(=O)c1cccnc1)[C@@H](C)CN([C@@H](C)CO)S2(=O)=O	inconclusive: 22%
C[C@H]1CCCCO[C@H](CN(C)C(=O)CCCN(C)C)[C@@H](C)CN([C@@H](C)CO)C(=O)c2cc(NS(=O)(=O)c3cccs3)ccc2O1	active: 23.3%
CCNC(=O)[C@H]1[C@H](CO)[C@H]2Cn3c(ccc(-c4ccc(OC)cc4)c3=O)[C@@H]1N2CC	active: 79%
COc1ccc2c3c(n(C)c2c1)[C@H](CO)N(C(=O)c1ccccc1)CC31CN(Cc2ccccc2OC)C1	inactive: -3.29%
CS(=O)(=O)N1[C@H](C#N)[C@H](c2ccccc2-c2ccc(F)cc2)[C@@H]1CO	active: 29.1%
O=C1c2ccccc2C(Nc2ccc(F)c(Cl)c2)N1Cc1ccco1 (centres undefined)	active: 35.7%
COc1ccc(NC(=O)Nc2ccc3c(c2)CC(=O)N([C@@H](C)CO)C[C@H](C)[C@H](CN(C)S(=O)(=O)c2ccc(F)cc2)O3)cc1	inactive: 12.6%
COc1ccc(NC(=O)N(C)C[C@H]2Oc3ccc(NS(=O)(=O)c4c(C)noc4C)cc3CC(=O)N([C@H](C)CO)C[C@H]2C)cc1	inactive: -6%
C[C@@H]1CCCCO[C@@H](CN(C)C(=O)Nc2ccc(F)cc2)[C@H](C)CN([C@H](C)CO)C(=O)c2cc(NC(=O)C3CCCCC3)ccc2O1	active: 32.3%
Nc1ccc(-c2cc3ccccc3c(=O)o2)cc1	active: 67.5%
N=c1c2c(ncn1CCN1CCOCC1)Oc1cc(O)ccc1C2c1ccccc1 (centres undefined)	inconclusive: 24.1%
O=C(CCn1nnc(-c2cccs2)n1)NCc1ccccc1Cl	inactive: -8.34%
O=C(NCCc1ccc(O)cc1)c1[nH]c(C(F)(F)F)nc1-c1ccccc1	inactive: 1.1%
CN1C[C@@H]2[C@H](c3ccccc31)[C@@H](CO)N2C(=O)C1CCOCC1	inactive: 15.1%

Reformatted with bars between the fields: part of the list above.
Structure (SMILES) | CPE inhibition
Cc1cc(Cl)ccc1NC(=S)NCc1ccc(F)cc1 | inactive: -7.23%
C/C=C/c1ccc2c(c1)O[C@@H](CN(C)Cc1cccnc1)[C@H](C)CN([C@@H](C)CO)S2(=O)=O | inconclusive: 30.4%
CC(C)NC(=O)N(C)C[C@H]1Oc2c(NS(C)(=O)=O)cccc2C(=O)N([C@H](C)CO)C[C@H]1C | inactive: -5.04%
CCOC(=O)CN1C(c2ccc(O)cc2)Nc2ccc(Br)cc2C1c1ccccc1 (centres undefined) | inconclusive: 21.5%
C[C@H]1CN([C@@H](C)CO)C(=O)c2cc(NC(=O)Nc3ccc(C(F)(F)F)cc3)ccc2O[C@H]1CN(C)Cc1ccncc1 | active: 20.6%
Cc1cc(CNC[C@H]2O[C@@H](n3cnc(C(N)=O)n3)[C@H](O)[C@@H]2O)c(C)n1-c1cccnc1 | inconclusive: 28%
CC(C)CC#Cc1ccc2c(c1)O[C@H](CN(C)C(=O)c1cccnc1)[C@@H](C)CN([C@@H](C)CO)S2(=O)=O | inconclusive: 22%
C[C@H]1CCCCO[C@H](CN(C)C(=O)CCCN(C)C)[C@@H](C)CN([C@@H](C)CO)C(=O)c2cc(NS(=O)(=O)c3cccs3)ccc2O1 | active: 23.3%
CCNC(=O)[C@H]1[C@H](CO)[C@H]2Cn3c(ccc(-c4ccc(OC)cc4)c3=O)[C@@H]1N2CC | active: 79%
COc1ccc2c3c(n(C)c2c1)[C@H](CO)N(C(=O)c1ccccc1)CC31CN(Cc2ccccc2OC)C1 | inactive: -3.29%
CS(=O)(=O)N1[C@H](C#N)[C@H](c2ccccc2-c2ccc(F)cc2)[C@@H]1CO | active: 29.1%
COc1ccc(NC(=O)Nc2ccc3c(c2)CC(=O)N([C@@H](C)CO)C[C@H](C)[C@H](CN(C)S(=O)(=O)c2ccc(F)cc2)O3)cc1 | inactive: 12.6%
COc1ccc(NC(=O)N(C)C[C@H]2Oc3ccc(NS(=O)(=O)c4c(C)noc4C)cc3CC(=O)N([C@H](C)CO)C[C@H]2C)cc1 | inactive: -6%
C[C@@H]1CCCCO[C@@H](CN(C)C(=O)Nc2ccc(F)cc2)[C@H](C)CN([C@H](C)CO)C(=O)c2cc(NC(=O)C3CCCCC3)ccc2O1 | active: 32.3%
Nc1ccc(-c2cc3ccccc3c(=O)o2)cc1 | active: 67.5%
N=c1c2c(ncn1CCN1CCOCC1)Oc1cc(O)ccc1C2c1ccccc1 (centres undefined) | inconclusive: 24.1%

The listing continues.

Structure (SMILES)	CPE inhibition
CCCc1nnc2n1N=C(c1ccc(OC)c(OC)c1)CS2	inactive: -3.11%
CC(C)(C)OC(=O)CNC(=O)c1[nH]cnc1C(=O)N[C@@H](Cc1ccccc1)C(=O)OC(C)(C)C	active: 54%
C[C@@H]1CN([C@H](C)CO)C(=O)c2cc(NC(=O)CCC(F)(F)F)ccc2O[C@@H](C)CCCCO[C@@H]1CN(C)S(C)(=O)=O	inconclusive: 42.9%
O=C(NCCS(=O)(=O)NCc1ccc2c(c1)OCO2)c1ccccc1	inactive: -3.23%
COc1ccc(C(=O)N2CCCC(c3cc(C(=O)Nc4ccccc4)no3)C2)cc1 (centres undefined)	inconclusive: 23.8%
CC(C)[C@H](NS(=O)(=O)c1ccccc1F)C(=O)NC1CCCCC1	inconclusive: 25.7%
O=C1C=CCCN1S(=O)(=O)/C=C/c1ccccc1	inactive: 0.08%
N#Cc1ccsc1NC(=O)COC(=O)CCS(=O)(=O)c1ccccc1	inconclusive: 35.7%
CC(C)NC(=O)N(C)C[C@@H]1Oc2ncc(-c3ccccc3F)cc2C(=O)N([C@H](C)CO)C[C@H]1C	inactive: -11%
Cc1cccc(-n2cnc(C(=O)NNC(=S)Nc3ccccc3)c2)n1	inconclusive: 24.3%
Cc1ccc(/C=N/NC(=O)c2cccnc2)o1	inconclusive: 26.3%
COC(=O)C[C@H]1C=C[C@H](NC(=O)Cc2ccccc2)[C@@H](CO)O1	inactive: 0.012%
Cc1noc(C)c1-c1ccc(C(=O)NCc2ccco2)c2occc12	inconclusive: 20.7%
Cc1ccc(Cc2c(-c3cccc(Br)c3)nc3c4ccccc4ccn23)cc1	active: 38.9%
COc1cc2cc(CCO)oc(=O)c2cc1OC	active: 89%
Cc1cc(C(=O)NCCCN2CCN(C3CCCCC3)CC2)n(-c2ccccc2)n1	inconclusive: 50.6%
O=C(NCc1ccc(C(F)(F)F)cc1)C1CC(c2ccccc2C(F)(F)F)=NO1 (centres undefined)	inconclusive: 28.1%
CCC(=O)NC[C@H]1[C@H](c2ccc(-c3cccc(F)c3)cc2)[C@H](CO)N1C(=O)CC	active: 28.8%
COc1ccc2c3c([nH]c2c1)[C@@H](CO)N(C(=O)Nc1ccc(F)cc1)CC31CCN(S(C)(=O)=O)CC1	inactive: -1.86%
Cc1ccc(Cc2c(-c3ccc(F)cc3)nc3ccc(Br)cn23)cc1	inconclusive: 28%
Cc1ccc(NC(=O)OCCN2CCN(Cc3ccccc3)CCC2=O)cc1C	inconclusive: 47.2%
O=C(Nc1ccccc1F)N[C@@H]1CC[C@H](CCNC(=O)C2CCC2)O[C@H]1CO	inconclusive: 23.4%
CCS(=O)(=O)Nc1ccc2c(c1)C(=O)N(C)[C@H]1CC[C@H](CC(=O)NCCCN3CCOCC3)O[C@H]1CO2	inconclusive: 35.6%
Cc1ccc2c(Cl)c(C(=O)NCCCN3CCOCC3)sc2c1	inconclusive: 43.1%
CCc1cc(-c2[nH]ncc2-c2ccc(OC)cc2)c(O)cc1O	inconclusive: 23.7%

Structure (SMILES)	CPE inhibition
C[C@H](CO)N1C[C@H](C)[C@H](CN(C)Cc2ccccc2)Oc2ccc(NC(=O)NC3CCCCC3)cc2CC1=O	inactive: -7.53%
C[C@H](CO)N1C[C@H](C)[C@@H](CN(C)Cc2ccc(-c3ccccc3)cc2)Oc2c(NC(=O)c3nc4ccccc4s3)cccc2C1=O	inactive: -8.48%
O=C(N/N=C/c1cccc(O)c1)c1ccc(-n2cnnn2)cc1	inconclusive: 26%
C[C@@H]1CN([C@@H](C)CO)C(=O)c2cc(NC(=O)CCCCCC(=O)Nc3ccccc3N)ccc2O[C@@H]1CN(C)C(=O)Nc1ccc2c(c1)OCO2	active: 29.9%
NS(=O)(=O)c1ccc(CCNC(=S)NC(=O)c2ccccc2Br)cc1	inconclusive: 52.3%
CO[C@H]1CN(C)C(=O)c2ccc(NC(=O)C3CC3)cc2OC[C@@H](C)N(Cc2ccc(F)cc2)C[C@H]1C	inactive: -3.12%
CCCC(=O)Nc1c(-c2cccc(C)c2)c(=O)c2ccccc2n1C	inactive: -4.84%
Cc1cccc(C(=O)N2CCC(=O)N([C@H](COCc3ccc(Cl)cc3)Cc3ccccc3)CC2)c1	active: 125%
C/C(=N\Nc1ccc(Cl)c(C(=O)O)c1)c1cccs1	inactive: 7.84%
COc1cccc(N2CC(C(=O)Nc3ccc(F)cc3)CC2=O)c1 (centres undefined)	active: 27%
CC(C)CN(C(=O)c1cccc(S(=O)(=O)N2CCN(Cc3ccccc3)CC2)c1)C1CCS(=O)(=O)C1 (centres undefined)	inactive: 11%
CCN1C(=NCCc2c[nH]c3ccccc23)N[C@@H](c2ccccc2)[C@H](C(=O)OC)[C@H]1C	active: 27.1%
CCO/C=C1/C(=O)N(c2ccccc2OC)C(=O)c2ccccc21	inactive: -5.28%
COc1ccc(-c2ccc3c(c2)[C@H]2[C@H](CCN2S(=O)(=O)c2ccc(OC)cc2)[C@H](CO)N3)cc1	active: 54.4%
Cc1ccc(/C=C2\SC(=S)N(CCCC(=O)Nc3cc(C)on3)C2=O)cc1	inconclusive: 22.6%
Cn1c(=O)c2nc(Cl)c(-c3ccccc3)nc2n(C)c1=O	active: 54.6%
O=C(C1CC1)N1CC(=O)N2[C@@H](CO)[C@H](c3ccc(C#CCc4ccccc4)cc3)[C@@H]2C1	active: 44.8%
COCC(=O)N1CC2(C1)[C@H](c1ccc(-c3cccc(C)c3)cc1)[C@H](CO)N2C(=O)C1CC1	active: 48.9%
O=C(C[C@H]1CC[C@@H]2[C@H](COC[C@H](O)CN2Cc2ccccc2F)O1)N[C@@H]1CCN(Cc2ccccc2)C1	inconclusive: 21.6%
Cc1ccc(C)c(N2CC(C(=O)OCC(=O)Nc3cc(C)on3)CC2=O)c1 (centres undefined)	inconclusive: 26.5%
CC(C)(C)C(=O)N1CCN(CCN2C(=O)c3cccc4cccc(c34)C2=O)CC1	inactive: 1.55%
C#CCN1C=C(C(=O)OCC)C(C)N(Cc2ccccc2I)S1(=O)=O (centres undefined)	active: 74.1%
COc1cccc(-c2cnc3c(c2)C(=O)N([C@@H](C)CO)C[C@@H](C)[C@@H](CN(C)Cc2ccc(F)cc2)O3)c1	inconclusive: 22.5%
CCOc1ccc(N2C(=O)CC(Sc3ccccc3C(=O)O)C2=O)c([N+](=O)[O-])c1 (centres undefined)	inactive: -1.13%
